The results in this text go back to publication PMC5586346.

Chains of the proteins cited; added tags and fusions are not shown. Residues count along the entry.
UniProt P49582, residues 23-502: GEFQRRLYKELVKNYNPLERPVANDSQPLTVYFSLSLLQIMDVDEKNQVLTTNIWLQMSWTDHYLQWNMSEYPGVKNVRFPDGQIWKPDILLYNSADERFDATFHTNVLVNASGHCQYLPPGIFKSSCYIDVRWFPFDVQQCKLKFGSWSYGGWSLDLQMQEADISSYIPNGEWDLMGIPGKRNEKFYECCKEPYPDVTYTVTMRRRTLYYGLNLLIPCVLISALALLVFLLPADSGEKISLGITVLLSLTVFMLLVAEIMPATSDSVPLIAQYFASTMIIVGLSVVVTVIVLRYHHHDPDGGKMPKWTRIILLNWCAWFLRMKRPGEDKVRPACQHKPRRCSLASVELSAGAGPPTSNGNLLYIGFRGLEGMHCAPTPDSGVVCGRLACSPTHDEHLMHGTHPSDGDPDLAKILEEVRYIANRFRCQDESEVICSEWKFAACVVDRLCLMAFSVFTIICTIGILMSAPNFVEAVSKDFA
UniProt P63094: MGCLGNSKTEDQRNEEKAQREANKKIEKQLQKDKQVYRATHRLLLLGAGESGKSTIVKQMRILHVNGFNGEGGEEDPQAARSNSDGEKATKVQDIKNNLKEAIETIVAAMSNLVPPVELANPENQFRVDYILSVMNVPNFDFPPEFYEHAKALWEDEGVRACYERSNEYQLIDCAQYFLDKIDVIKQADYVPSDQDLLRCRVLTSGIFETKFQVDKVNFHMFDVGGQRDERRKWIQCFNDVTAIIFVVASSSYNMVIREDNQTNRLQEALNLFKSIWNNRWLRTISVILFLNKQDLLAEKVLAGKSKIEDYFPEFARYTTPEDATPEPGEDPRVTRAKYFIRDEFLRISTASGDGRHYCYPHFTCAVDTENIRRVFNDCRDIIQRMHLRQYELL

This assay has as its target α7 nicotinic acetylcholine receptor (mouse (endogenous in EOC20)) (UniProt P49582). Put plainly: co-IP; α7 nAChR complex precipitated from 500 μg EOC20 cell membrane protein fraction with 5 μg anti-α7 C-20 antibody on Protein G Dynabeads; western blot with anti-Gαi, anti-Gαq, anti-Gαs and anti-Gβ; cells untreated or treated with LPS (1 μg/mL, 4 h); cells untransfected, or transfected with α7_(345-8A) or empty vector 72 h before.

Results are given in words; binding and its absence hold for the method and conditions named. Binding seen in cells or lysates may run through a third protein.

Take “heterotrimeric G protein subunit Gαs (from UniProt P63094 1-394)”: the binding entry is on record as “no binding”.
